Assay results from US20100150948A1, “MATERIALS AND METHODS FOR IMPROVED IMMUNOGLYCOPROTEINS” (TRUBION PHARMACEUTICALS, INC., priority 2006, published 2010).
Where “and” joins values, the source holds several entries; their conditions need not be identical. Equal values may be shown once.

Test system: CHO cells transfected with TRU-016
Experiment: Effect of castanospermine concentration on cell viability, density and specific protein production of TRU-016
Assay type: cell-based, Chinese hamster
Conditions: duplicate flasks
Procedure: Prior to initiation of the experiments, CHO cells transfected with TRU-016 were grown in shake flasks in Ex-Cell™ 302 CHO serum-free media (SAFC Biosciences) supplemented with 1× non-essential amino acids (MediaTech), 1× sodium pyruvate (MediaTech), 4 mM L-glutamine (MediaTech), 500 nM methotrexate (MP Biomedicals) and 1 mg/L recombinant insulin (Recombulin—GIBCO/Invitrogen Corp.) at 37° C. and 5% carbon dioxide in a humidified incubator. A 200 mM stock concentration of castanospermine (Alexis Biochemicals) was prepared by dilution of the castanospermine in sterile, distilled/deionized water (MediaTech) and filtration through a 13 mm Acrodisc® with a 0.2 μm HT Tuffryn membrane (Pall Corporation). Stock solution was aliquoted into sterile, O-ringed, 0.5 mL microcentrifuge tubes (Fisherbrand, Fisher Scientific) and frozen at −20° C. Approximately 1 hour prior to initiation of experiments, needed aliquots were thawed at room temperature and the contents of each vial mixed well by vortexing.
For each experiment, cells in log phase growth were seeded in the above medium into a total volume of 60 mL in 250 mL shaker flasks at a density of 200,000 cells/mL and CS added at the concentration to be tested. Final CS concentrations of 800 μM, 400 μM, 200 μM, 100 μM, 50 μM, 25 μM and 0 μM were each tested in duplicate flasks. All cultures were incubated at 37° C. and 5% carbon dioxide in a humidified incubator and monitored at least every other day for viable cell density and overall cell viability.
Cultures were harvested on day 8 when overall cell viability was 50-70% (Expt. 1) and 30-50% (Expt. 2). Cells and cellular debris were removed by centrifugation in a Sorvall Super T21 at 3000 rpm for 20 minutes after which the supernatant was sterile filtered through a Millipore Steriflip unit with a 0.22 μm Millipore Express Plus membrane and stored at 2-8° C. until purification.

In the case of `O[C@H]1[C@H](O)[C@@H](O)CN2CC[C@H](O)[C@H]12` [castanospermine], the “Specific Productivity (pg/cell/day)” value (CS 25 μM, listed as CS) is reported as 8.22 pg/cell/day and 8.78 pg/cell/day, the “Specific Productivity (pg/cell/day)” value (CS 50 μM, listed as CS) is reported as 8.15 pg/cell/day and 8.27 pg/cell/day and the “Specific Productivity (pg/cell/day)” value (CS 100 μM, listed as CS) is reported as 7.48 pg/cell/day and 7.49 pg/cell/day. For the same compound, the “Specific Productivity (pg/cell/day)” value (CS 200 μM, listed as CS) was 6.60 pg/cell/day and 6.47 pg/cell/day, the “Specific Productivity (pg/cell/day)” value (CS 400 μM) was 5.48 pg/cell/day and the “Specific Productivity (pg/cell/day)” value (CS 400 μM, listed as CS) was 5.53 pg/cell/day. The “Specific Productivity (pg/cell/day)” value (CS 800 μM, listed as CS) was 3.99 pg/cell/day and 4.36 pg/cell/day.
